According to paper PMC10847417:
Results are given in words; binding and its absence hold for the method and conditions named. In cells and extracts the contact can be indirect. Binding calls can cover weak binding; strength is not graded here.

Amino acid sequences for entries named in this document (tags omitted). A change or cut given only in a name is not applied to a line headed by its entry.
UniProt P14618: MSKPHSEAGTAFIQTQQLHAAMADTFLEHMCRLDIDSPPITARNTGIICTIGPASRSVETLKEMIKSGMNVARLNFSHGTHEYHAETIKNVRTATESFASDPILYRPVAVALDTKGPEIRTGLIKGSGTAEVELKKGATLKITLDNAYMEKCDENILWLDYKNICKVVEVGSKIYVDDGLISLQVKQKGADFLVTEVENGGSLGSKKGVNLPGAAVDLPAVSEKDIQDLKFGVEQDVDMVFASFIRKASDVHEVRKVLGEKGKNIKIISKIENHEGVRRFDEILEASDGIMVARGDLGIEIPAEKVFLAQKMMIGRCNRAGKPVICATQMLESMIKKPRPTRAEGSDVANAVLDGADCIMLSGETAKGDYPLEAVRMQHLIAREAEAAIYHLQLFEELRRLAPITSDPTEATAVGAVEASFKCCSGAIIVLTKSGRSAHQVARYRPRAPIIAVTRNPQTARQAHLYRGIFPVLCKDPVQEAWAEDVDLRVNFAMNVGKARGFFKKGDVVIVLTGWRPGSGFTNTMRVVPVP
UniProt P67775: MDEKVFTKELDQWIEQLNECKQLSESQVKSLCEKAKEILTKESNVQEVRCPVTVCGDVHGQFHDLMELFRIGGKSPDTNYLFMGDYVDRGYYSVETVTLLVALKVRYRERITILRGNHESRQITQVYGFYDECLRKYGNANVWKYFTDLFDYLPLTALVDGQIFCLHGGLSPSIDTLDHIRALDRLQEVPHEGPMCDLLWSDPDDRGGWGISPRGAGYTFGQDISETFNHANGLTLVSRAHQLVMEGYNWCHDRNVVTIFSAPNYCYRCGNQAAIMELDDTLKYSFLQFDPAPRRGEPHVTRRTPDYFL

Target: pyruvate kinase M2 (PKM2), endogenous (human (endogenous in A549 and H1299)) (UniProt P14618)
Experiment: co-IP; endogenous proteins in A549 and H1299 lysates; IP lysis buffer, 2 μg antibody and Protein A/G PLUS-Agarose at 4 °C overnight, five washes, western blot

binding: binds
Substance: PP2AC, endogenous (from UniProt P67775) (enzyme)
